These are yes or no findings as the source states them, for the method shown. Binding seen in cells or lysates may run through a third protein. Some results given as binding are weak or reduced against the parent protein; the word gives no strength. For some of these results: Where a sequence is shown, tags or fusion partners need not be part of it.

Experiment [1] has as its target T1, HA-tagged BBS1 (UniProt Q8NFJ9).
T1 sequence: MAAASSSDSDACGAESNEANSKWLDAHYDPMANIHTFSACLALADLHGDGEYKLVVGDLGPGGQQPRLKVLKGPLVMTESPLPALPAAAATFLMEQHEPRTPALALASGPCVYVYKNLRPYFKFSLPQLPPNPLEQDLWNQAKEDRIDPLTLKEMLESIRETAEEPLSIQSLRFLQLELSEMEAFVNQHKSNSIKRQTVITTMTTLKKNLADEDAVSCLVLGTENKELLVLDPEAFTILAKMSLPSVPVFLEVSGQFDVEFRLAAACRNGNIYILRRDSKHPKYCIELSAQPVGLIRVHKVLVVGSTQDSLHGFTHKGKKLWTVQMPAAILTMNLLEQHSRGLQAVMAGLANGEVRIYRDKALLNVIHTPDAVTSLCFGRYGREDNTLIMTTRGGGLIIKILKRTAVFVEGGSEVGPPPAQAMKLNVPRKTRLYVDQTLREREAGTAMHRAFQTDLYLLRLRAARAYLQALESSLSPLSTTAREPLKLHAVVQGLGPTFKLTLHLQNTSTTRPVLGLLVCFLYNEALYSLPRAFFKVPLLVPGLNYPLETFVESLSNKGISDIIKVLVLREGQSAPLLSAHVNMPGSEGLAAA
Put plainly: co-IP; HEK293 cells transiently co-transfected with flag-PJA2 (wild type or Δ550-570) and HA-tagged BBS vectors; lysis in 150 mM NaCl, 50 mM Tris-HCl pH 7.5, 1 mM EDTA, 0.5% NP40; immunoprecipitation overnight with anti-HA (or anti-flag); immunoblot for HA and flag.

Experiment [2] addresses T2, HA-tagged BBS2 (UniProt Q9BXC9).
T2 sequence: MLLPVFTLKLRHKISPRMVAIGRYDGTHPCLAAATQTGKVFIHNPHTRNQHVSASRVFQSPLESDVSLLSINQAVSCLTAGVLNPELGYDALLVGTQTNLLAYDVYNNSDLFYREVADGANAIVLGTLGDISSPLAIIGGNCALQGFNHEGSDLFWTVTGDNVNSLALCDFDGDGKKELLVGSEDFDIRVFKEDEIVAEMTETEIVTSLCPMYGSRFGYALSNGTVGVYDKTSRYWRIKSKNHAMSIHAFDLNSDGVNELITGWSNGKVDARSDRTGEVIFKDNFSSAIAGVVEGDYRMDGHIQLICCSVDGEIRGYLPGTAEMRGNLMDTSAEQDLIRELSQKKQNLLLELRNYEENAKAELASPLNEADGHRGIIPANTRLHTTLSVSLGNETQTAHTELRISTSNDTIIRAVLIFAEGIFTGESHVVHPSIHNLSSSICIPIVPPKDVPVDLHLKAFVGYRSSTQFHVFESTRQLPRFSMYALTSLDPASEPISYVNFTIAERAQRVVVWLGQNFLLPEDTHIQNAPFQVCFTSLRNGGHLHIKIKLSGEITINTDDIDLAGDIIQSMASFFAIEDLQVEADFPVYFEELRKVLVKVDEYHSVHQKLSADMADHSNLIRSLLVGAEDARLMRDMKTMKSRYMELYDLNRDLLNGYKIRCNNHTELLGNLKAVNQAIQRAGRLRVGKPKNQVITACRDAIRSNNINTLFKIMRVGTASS
The experiment is described as above.

Experiment [3] deals with T3, HA-tagged BBS4 (UniProt Q96RK4).
T3 sequence: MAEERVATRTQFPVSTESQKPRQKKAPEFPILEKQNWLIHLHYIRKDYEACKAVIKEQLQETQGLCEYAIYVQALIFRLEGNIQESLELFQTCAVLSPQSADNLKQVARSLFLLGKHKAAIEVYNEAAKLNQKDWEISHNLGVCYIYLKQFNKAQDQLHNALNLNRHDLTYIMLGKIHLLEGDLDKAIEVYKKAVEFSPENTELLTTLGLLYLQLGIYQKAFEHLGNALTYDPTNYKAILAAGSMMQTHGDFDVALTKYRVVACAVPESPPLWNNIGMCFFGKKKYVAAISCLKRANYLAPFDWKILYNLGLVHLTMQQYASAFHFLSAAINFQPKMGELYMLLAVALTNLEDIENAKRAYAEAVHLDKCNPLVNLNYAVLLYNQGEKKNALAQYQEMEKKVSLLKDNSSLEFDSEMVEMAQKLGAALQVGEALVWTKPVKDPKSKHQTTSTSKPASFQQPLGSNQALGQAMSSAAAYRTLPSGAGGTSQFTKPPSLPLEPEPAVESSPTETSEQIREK
The description is as above.

Experiment [4] concerns the target T4, HA-tagged BBS7 (UniProt Q8IWZ6).
T4 sequence: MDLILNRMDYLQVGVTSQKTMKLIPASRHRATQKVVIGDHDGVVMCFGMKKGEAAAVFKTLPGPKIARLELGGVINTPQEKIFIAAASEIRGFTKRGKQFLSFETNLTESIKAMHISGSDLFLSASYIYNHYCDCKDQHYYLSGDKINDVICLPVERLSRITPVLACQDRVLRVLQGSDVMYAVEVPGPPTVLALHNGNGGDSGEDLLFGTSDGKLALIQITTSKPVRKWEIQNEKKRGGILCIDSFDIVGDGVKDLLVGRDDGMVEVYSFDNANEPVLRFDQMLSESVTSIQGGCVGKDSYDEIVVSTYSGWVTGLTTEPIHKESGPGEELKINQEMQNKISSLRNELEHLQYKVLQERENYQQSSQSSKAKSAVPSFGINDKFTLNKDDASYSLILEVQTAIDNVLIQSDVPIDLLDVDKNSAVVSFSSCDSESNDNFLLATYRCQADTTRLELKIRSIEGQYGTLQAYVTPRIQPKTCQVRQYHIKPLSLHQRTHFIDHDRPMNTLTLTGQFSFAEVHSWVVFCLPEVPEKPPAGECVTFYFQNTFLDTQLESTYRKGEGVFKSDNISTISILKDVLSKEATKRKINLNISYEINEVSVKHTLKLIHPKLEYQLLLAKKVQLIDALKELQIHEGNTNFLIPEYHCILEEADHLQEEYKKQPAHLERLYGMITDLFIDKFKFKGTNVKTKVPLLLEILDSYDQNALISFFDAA
The description is as above.

The target of experiment [5] is T5, endogenous PJA2 (human (endogenous in HEK293)) (UniProt O43164).
T5 sequence: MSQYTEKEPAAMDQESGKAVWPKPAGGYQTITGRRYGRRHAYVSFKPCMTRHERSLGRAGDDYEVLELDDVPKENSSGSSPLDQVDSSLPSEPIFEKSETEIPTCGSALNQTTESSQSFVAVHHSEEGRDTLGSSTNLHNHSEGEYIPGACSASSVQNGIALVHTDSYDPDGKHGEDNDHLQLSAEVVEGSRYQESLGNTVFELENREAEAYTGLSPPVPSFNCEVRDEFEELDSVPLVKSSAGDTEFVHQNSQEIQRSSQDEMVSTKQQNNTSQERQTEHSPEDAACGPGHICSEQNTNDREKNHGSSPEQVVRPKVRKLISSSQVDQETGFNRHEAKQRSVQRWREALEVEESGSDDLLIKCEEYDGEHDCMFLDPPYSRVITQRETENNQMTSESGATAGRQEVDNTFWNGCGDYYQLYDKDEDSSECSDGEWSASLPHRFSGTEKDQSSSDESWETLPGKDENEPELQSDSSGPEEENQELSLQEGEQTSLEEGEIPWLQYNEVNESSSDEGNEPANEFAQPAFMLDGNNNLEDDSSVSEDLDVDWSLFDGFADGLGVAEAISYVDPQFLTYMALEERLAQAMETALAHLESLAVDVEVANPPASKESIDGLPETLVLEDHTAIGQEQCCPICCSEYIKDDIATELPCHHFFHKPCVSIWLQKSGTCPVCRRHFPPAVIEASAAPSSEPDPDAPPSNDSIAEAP
Put plainly: co-IP; endogenous proteins; HEK293 cell lysates immunoprecipitated with anti-PJA2 or control IgG; immunoblot for PJA2 and BBS2.

B1: flag-PJA2 mutant (Δ550‐570) (enzyme, UniProt O43164)
chain: MSQYTEKEPAAMDQESGKAVWPKPAGGYQTITGRRYGRRHAYVSFKPCMTRHERSLGRAGDDYEVLELDDVPKENSSGSSPLDQVDSSLPSEPIFEKSETEIPTCGSALNQTTESSQSFVAVHHSEEGRDTLGSSTNLHNHSEGEYIPGACSASSVQNGIALVHTDSYDPDGKHGEDNDHLQLSAEVVEGSRYQESLGNTVFELENREAEAYTGLSPPVPSFNCEVRDEFEELDSVPLVKSSAGDTEFVHQNSQEIQRSSQDEMVSTKQQNNTSQERQTEHSPEDAACGPGHICSEQNTNDREKNHGSSPEQVVRPKVRKLISSSQVDQETGFNRHEAKQRSVQRWREALEVEESGSDDLLIKCEEYDGEHDCMFLDPPYSRVITQRETENNQMTSESGATAGRQEVDNTFWNGCGDYYQLYDKDEDSSECSDGEWSASLPHRFSGTEKDQSSSDESWETLPGKDENEPELQSDSSGPEEENQELSLQEGEQTSLEEGEIPWLQYNEVNESSSDEGNEPANEFAQPAFMLDGNNNLEDDSSVSEDLDVDPQFLTYMALEERLAQAMETALAHLESLAVDVEVANPPASKESIDGLPETLVLEDHTAIGQEQCCPICCSEYIKDDIATELPCHHFFHKPCVSIWLQKSGTCPVCRRHFPPAVIEASAAPSSEPDPDAPPSNDSIAEAP
For the molecule B1, the binding entry in experiment [1] and in experiment [2] was “no binding” throughout.

B2: flag-PJA2 (wild type) (enzyme, UniProt O43164 1-708)
chain: T5 sequence
As to B2, the binding result in experiment [1], in experiment [2], in experiment [3] and in experiment [4] was “binds” in each case.

B3: endogenous BBS2 (protein, UniProt Q9BXC9 1-721)
chain: T2 sequence
Consider B3, for which the binding result in experiment [5] is listed as “binds”.
